In PMC5844954:
No constants are given. Whether binding was seen depends on the method and setting. For some assays here: In cells and extracts the contact can be indirect. Some entries that bind do so weakly or less than the wild type. For some assays here: Where a sequence is shown, tags or fusion partners need not be part of it. Blank lines part the entries; values can stand above or below the binder they belong to.

By UniProt entry, the sequences of proteins in these tests, tags left out. Where a name states a change or a piece, a line headed by the entry shows the natural chain unless it says otherwise. Chains listed by the source or under a name are the forms on record and can include a tag or linker. Residues count along the entry.
UniProt Q8TEW0: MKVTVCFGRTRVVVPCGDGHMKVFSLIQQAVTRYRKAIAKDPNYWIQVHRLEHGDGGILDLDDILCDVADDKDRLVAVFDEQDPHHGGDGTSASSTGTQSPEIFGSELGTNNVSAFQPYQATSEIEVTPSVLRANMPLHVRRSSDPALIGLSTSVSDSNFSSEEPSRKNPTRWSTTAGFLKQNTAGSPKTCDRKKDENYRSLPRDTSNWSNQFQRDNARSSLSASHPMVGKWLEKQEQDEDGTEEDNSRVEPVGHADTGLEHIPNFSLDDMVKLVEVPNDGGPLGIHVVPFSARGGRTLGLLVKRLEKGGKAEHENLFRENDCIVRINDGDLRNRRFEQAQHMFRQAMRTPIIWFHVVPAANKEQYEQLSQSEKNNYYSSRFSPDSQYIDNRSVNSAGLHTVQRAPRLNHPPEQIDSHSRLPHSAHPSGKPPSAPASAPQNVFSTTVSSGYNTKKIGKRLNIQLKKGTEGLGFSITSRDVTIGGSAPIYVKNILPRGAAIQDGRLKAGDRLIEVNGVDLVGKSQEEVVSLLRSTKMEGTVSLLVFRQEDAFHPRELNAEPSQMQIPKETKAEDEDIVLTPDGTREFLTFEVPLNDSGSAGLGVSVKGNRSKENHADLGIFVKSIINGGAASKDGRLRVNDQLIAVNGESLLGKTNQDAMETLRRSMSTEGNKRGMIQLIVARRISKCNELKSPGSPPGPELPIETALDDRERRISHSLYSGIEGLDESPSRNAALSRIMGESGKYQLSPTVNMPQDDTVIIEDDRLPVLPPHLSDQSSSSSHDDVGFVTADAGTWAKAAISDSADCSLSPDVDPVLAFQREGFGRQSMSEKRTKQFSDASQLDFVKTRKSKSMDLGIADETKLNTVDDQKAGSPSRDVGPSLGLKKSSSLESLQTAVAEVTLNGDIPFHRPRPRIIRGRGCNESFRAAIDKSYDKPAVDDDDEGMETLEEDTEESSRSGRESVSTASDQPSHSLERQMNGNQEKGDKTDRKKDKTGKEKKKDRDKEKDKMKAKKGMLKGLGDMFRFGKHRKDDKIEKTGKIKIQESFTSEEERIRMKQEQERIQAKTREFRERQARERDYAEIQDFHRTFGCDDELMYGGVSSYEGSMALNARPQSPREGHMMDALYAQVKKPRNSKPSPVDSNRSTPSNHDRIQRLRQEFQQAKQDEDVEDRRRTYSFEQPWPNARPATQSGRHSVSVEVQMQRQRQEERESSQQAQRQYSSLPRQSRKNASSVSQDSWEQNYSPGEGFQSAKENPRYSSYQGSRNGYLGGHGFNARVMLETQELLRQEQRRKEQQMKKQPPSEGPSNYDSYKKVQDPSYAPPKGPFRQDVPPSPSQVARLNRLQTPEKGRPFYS
GST-tagged human Par3^PDZ (three PDZ domains, residues 269-685): residues 269-685 of Q8TEW0

Legend:
[1] = target: T1, Drosophila LGN (Pins) TPR domain, residues 25-406 (Drosophila) (UniProt Q9VB22); assay: crystal structure; dLGN 25-406:Insc 283-623 complex, 3.4 Å, space group P212121, four tetramers in the asymmetric unit; both purified
T1 sequence: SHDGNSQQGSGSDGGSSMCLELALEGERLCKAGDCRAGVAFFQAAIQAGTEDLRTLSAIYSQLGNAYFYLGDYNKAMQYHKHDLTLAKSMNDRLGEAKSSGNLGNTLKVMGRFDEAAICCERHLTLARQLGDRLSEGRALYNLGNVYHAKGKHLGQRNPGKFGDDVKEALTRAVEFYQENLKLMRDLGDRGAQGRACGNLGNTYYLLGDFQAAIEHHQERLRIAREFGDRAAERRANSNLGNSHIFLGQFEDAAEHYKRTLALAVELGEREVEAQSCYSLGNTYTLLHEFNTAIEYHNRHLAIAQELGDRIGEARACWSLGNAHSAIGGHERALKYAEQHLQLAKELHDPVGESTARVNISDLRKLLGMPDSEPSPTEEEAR

[2] = target: T1, Drosophila LGN (Pins) TPR domain, residues 25-406 (Drosophila); assay: SEC-SAXS; 100 μl of complex at 20 mg/ml on Superdex-200 10/30 Increase, ESRF BM29; both purified
human Par3-GFP (human) = human Par3-GFP (human) (UniProt Q8TEW0); assay: co-IP; HEK293T co-transfected with human Insc and Par3, nocodazole 16 h, JS buffer, antibody-conjugated sepharose beads, 2 h at 4 °C (Supplementary Fig. 5)
[3] = target: GST-tagged human Par3^PDZ (three PDZ domains, residues 269-685) (human) (UniProt Q8TEW0); assay: pull-down; GST-tagged Par3^PDZ (2 μM) incubated with HEK293T lysates expressing Insc constructs, 2 h at 4 °C, JS buffer; only the target purified
[4] = target: T2, human LGN of the Insc:LGN:Gαi complex (human) (UniProt P81274); assay: SEC; Par3^PDZ123 mixed in molar excess with purified Insc:LGN:Gαi, SDS-PAGE of fractions; both purified
T2 sequence: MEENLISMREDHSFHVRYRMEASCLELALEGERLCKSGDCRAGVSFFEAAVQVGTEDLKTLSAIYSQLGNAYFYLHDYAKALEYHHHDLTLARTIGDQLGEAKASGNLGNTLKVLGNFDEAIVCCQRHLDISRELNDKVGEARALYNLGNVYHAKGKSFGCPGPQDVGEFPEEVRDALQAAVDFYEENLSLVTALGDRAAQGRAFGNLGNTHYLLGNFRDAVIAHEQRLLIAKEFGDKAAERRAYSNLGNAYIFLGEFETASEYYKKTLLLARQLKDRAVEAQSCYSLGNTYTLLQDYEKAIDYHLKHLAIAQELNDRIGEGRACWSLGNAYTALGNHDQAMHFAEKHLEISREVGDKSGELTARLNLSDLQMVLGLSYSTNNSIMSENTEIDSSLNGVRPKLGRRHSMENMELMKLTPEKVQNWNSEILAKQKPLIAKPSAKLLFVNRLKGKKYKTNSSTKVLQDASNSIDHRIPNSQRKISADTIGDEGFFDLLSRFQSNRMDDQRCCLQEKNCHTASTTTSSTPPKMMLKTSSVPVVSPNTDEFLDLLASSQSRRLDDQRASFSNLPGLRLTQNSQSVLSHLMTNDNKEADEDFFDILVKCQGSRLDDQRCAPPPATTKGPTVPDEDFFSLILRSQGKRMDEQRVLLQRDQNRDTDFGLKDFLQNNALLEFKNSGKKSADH

binding [1]: binds
binding [2]: binds
B1: Drosophila Inscuteable asymmetric domain, residues 283-623 (domain or fragment, UniProt Q24367 283-623)
chain: SLRFTASTSTPKSGSKIAKRGKKHPEPVASWMSEQRWAGEPEVMCTLQHKSIAQEAYKNYTITTSAVCKLVRQLQQQALSLQVHFERSERVLSGLQASSLPEALAGATQLLSHLDDFTATLERRGVFFNDAKIERRRYEQHLEQIRTVSKDTRYSLERQHYINLESLLDDVQLLKRHTLITLRLIFERLVRVLVISIEQSQCDLLLRANINMVATLMNIDYDGFRSLSDAFVQNEAVRTLLVVVLDHKQSSVRALALRALATLCCAPQAINQLGSCGGIEIVRDILQVESAGERGAIERREAVSLLAQITAAWHGSEHRVPGLRDCAESLVAGLAALLQPE

binding (human Par3-GFP (human)): binds
binding [3]: binds
B2: human Insc (residues 1-532) with an N-terminal HA-tag (protein, UniProt Q1MX18-2 1-532)
chain: MMALPGGRHLDSVTLPGQRLHLMQVDSVQRWMEDLKLMTECECMCVLQAKPISLEEDAQGDLILAGGPGPGDPLQLLLKRGWVISTELRRIGQKLAQDRWARVHSMSVRLTCHARSMVSEYSAVSRNSLKEMGEIEKLLMEKCSELSAVTERCLQVENEHVLKSMKACVSETLSMLGQHFGQLLELALTREVQALVRKIDASDNIYTTESTTGNLFSLTQEGAPLCRIIAKEGGVVALFKVCRQDSFRCLYPQALRTLASICCVEEGVHQLEKVDGVLCLADILTDNSHSEATRAEAAAVVAQVTSPHLPVTQHLSSFLESMEEIVTALVKLCQEASSGEVFLLASAALANITFFDTMACEMLLQLNAIRVLLEACSDKQRVDTPYTRDQIVTILANMSVLEQCASDIIQENGVQLIMGMLSEKPRSGTPAEVAACERVQQKAAVTLARLSRDPDVAREAVRLSCMSRLIELCRSPSERNSSDAVLVACLAALRRLAGVCPEGLQDSDFQQLVQPRLVDSFLLCSNMEESFV

binding [4]: binds
B3: human Insc of the Insc:LGN:Gαi complex (protein, UniProt Q1MX18-2 1-532)
chain: MMALPGGRHLDSVTLPGQRLHLMQVDSVQRWMEDLKLMTECECMCVLQAKPISLEEDAQGDLILAGGPGPGDPLQLLLKRGWVISTELRRIGQKLAQDRWARVHSMSVRLTCHARSMVSEYSAVSRNSLKEMGEIEKLLMEKCSELSAVTERCLQVENEHVLKSMKACVSETLSMLGQHFGQLLELALTREVQALVRKIDASDNIYTTESTTGNLFSLTQEGAPLCRIIAKEGGVVALFKVCRQDSFRCLYPQALRTLASICCVEEGVHQLEKVDGVLCLADILTDNSHSEATRAEAAAVVAQVTSPHLPVTQHLSSFLESMEEIVTALVKLCQEASSGEVFLLASAALANITFFDTMACEMLLQLNAIRVLLEACSDKQRVDTPYTRDQIVTILANMSVLEQCASDIIQENGVQLIMGMLSEKPRSGTPAEVAACERVQQKAAVTLARLSRDPDVAREAVRLSCMSRLIELCRSPSERNSSDAVLVACLAALRRLAGVCPEGLQDSDFQQLVQPRLVDSFLLCSNMEESFV
